Test results from PMC9037480.
These are yes or no findings as the source states them, for the method shown. Some binding calls cover weakened binding; strength is not graded here.

Biological target: T1, Tsr1-TAP (S. cerevisiae), Q07381
T1 chain: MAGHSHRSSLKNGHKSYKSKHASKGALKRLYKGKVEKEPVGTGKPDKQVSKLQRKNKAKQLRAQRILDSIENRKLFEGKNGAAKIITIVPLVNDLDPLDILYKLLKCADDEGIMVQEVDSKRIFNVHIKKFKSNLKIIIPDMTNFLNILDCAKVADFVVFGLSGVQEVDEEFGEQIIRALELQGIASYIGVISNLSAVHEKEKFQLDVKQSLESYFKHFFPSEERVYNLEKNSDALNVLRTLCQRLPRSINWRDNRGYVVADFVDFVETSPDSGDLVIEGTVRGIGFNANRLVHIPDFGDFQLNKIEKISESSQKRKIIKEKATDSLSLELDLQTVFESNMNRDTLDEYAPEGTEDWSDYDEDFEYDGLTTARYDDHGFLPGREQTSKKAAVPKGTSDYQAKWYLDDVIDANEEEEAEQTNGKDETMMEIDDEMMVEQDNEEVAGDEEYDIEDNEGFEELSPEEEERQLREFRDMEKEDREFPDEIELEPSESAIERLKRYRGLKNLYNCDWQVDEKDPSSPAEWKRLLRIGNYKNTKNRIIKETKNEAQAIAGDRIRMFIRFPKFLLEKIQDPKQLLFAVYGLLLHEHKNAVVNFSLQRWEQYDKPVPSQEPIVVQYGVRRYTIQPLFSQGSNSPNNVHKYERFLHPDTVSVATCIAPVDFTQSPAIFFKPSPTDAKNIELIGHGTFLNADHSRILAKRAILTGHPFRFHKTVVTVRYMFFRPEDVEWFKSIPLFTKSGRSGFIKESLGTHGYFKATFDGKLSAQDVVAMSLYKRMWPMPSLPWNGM
Test: tandem affinity purification (TAP) with western blot; Tsr1-TAP as bait from yeast lysate of RPS15 wild-type, rps15-1-134 or rps15-RTH(77-79)>A backgrounds; IgG Sepharose, TEV elution, Calmodulin Sepharose, EGTA elution; 50 mM Tris-HCl pH 7.5, 100 mM NaCl, 1.5 mM MgCl2, 0.075% NP-40, 1 mM DTT; eluates analysed by western blot
Conditions: remark: other sources report otherwise

binding: binds
B1: Nob1, Q08444 1-459 (protein)
chain: MTENQTAHVRALILDATPLITQSYTHYQNYAQSFYTTPTVFQEIKDAQARKNLEIWQSLGTLKLVHPSENSIAKVSTFAKLTGDYSVLSANDLHILALTYELEIKLNNGDWRLRKKPGDALDASKADVGTDGKQKLTEDNKKEEDSESVPKKKNKRRGGKKQKAKREAREAREAENANLELESKAEEHVEEAGSKEQICNDENIKESSDLNEVFEDADDDGDWITPENLTEAIIKDSGEDTTGSLGVEASEEDRHVALNRPENQVALATGDFAVQNVALQMNLNLMNFMSGLKIKRIRNYMLRCHACFKIFPLPKDGKPKHFCASCGGQGTLLRCAVSVDSRTGNVTPHLKSNFQWNNRGNRYSVASPLSKNSQKRYGKKGHVHSKPQENVILREDQKEYEKVIKQEEWTRRHNEKILNNWIGGGSADNYISPFAITGLKQHNVRIGKGRYVNSSKRRS
